Measurements published in PMC13039524.
These are yes or no findings as the source states them, for the method shown. In cells and extracts the contact can be indirect. Some results given as binding are weak or reduced against the parent protein; the word gives no strength.

Biological target: T1, TRAF6 (UniProt P70196)
T1 sequence: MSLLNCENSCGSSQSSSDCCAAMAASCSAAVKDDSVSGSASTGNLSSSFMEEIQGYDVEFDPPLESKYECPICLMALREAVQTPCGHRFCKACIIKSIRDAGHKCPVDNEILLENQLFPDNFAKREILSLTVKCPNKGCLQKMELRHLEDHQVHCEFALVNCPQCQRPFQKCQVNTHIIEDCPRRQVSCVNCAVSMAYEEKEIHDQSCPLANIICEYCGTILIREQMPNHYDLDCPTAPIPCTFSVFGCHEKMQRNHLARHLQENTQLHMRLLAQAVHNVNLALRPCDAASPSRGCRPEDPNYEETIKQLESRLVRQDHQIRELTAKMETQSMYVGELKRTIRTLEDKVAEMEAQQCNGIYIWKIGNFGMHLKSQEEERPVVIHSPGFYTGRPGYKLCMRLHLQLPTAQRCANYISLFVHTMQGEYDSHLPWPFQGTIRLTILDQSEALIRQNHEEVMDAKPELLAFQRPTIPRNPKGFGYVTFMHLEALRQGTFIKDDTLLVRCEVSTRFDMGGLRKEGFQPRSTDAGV
Test: co-IP; cells lysed in IP lysis buffer 48 h after transfection; lysate incubated with anti-Flag M2 beads or His-tag purification resin at 4 °C for 4 h; washed four to five times with NETN buffer; Western blotting; bait not stated

binding: binds
B1: Acyl-CoA dehydrogenase-9 (ACAD9) (protein, UniProt Q8JZN5 42-625)
chain: SFAKELFLGNIEQKGVFPFPEVSQHELSEINQFVGPLEKFFTEEVDSRKIDQEGKIPVDTLEKLKSLGLFGIQVPEEYGGLGLSNTMYARLGEIISLDASITVTLAAHQAIGLKGIILVGNEEQKAKYLPKLSSGEHIAAFCLTEPASGSDAASIQTRATLSEDKKYFILNGSKVWITNGGLANIFTVFAKTEVVDSDGSKTDKMTAFIVERDFGGITNGKPEDKLGIRGSNTCEVHFENTRVPVENVLGEVGGGFKVAMNILNSGRFSMGSAVAGMLKKLIELTAEYACTRKQFNRNLSEFGLIQEKFALMAQKAYVMESMAYLTSGMLDQPGFPDCSIEAAMVKVFSSEAAWQCVSEALQILGGSGYMKDYPYERMLRDARILLIFEGTNEILRLFIALTGLQHAGRILTSRIKELKSGNVTTVMETIGRKLRDSLGRTVDLGLTGDLGVVHPSLGDSANKLEENVHYFGRTVETLLLRFGKNIVEEQLVLKRVANILINLYGMTAVLSRASRSIRIGLRNHDHEVLLANMFCVEAYFQNLFSLSQLDKNAPENLDEQIKKVSRQILEKRAYICAHPLDRAS
